These are yes or no findings as the source states them, for the method shown. Binding seen in cells or lysates may run through a third protein. Binding can be weak; no strength is given.
Biological target: Myc-CCR2B47, Myc-tagged CCR2B tail fragment translated in vitro from pGBKT7-CCR2B47 (UniProt P41597)
Experiment: co-IP; in vitro translated Myc-CCR2B47 mixed with lysates of untransfected A7 or M2 cells in 1% Brij 96 V lysis buffer; immunoprecipitation with anti-c-Myc, blot for FLNa

Protein sequences, listed by entry. Tags and fused reporters are not part of them. Lines headed by an entry give the natural chain unless they say otherwise; changes in a name come on top.
UniProt P41597: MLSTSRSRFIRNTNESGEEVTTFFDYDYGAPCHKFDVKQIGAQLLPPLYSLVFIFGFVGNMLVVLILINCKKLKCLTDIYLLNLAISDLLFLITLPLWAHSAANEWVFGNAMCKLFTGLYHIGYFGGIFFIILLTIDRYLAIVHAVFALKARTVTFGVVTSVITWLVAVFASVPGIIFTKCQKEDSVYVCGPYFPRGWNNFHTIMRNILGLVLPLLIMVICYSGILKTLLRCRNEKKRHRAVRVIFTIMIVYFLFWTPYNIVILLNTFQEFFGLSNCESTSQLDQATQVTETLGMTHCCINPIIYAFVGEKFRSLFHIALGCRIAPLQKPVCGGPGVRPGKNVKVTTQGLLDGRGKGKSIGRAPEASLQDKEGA
UniProt P21333: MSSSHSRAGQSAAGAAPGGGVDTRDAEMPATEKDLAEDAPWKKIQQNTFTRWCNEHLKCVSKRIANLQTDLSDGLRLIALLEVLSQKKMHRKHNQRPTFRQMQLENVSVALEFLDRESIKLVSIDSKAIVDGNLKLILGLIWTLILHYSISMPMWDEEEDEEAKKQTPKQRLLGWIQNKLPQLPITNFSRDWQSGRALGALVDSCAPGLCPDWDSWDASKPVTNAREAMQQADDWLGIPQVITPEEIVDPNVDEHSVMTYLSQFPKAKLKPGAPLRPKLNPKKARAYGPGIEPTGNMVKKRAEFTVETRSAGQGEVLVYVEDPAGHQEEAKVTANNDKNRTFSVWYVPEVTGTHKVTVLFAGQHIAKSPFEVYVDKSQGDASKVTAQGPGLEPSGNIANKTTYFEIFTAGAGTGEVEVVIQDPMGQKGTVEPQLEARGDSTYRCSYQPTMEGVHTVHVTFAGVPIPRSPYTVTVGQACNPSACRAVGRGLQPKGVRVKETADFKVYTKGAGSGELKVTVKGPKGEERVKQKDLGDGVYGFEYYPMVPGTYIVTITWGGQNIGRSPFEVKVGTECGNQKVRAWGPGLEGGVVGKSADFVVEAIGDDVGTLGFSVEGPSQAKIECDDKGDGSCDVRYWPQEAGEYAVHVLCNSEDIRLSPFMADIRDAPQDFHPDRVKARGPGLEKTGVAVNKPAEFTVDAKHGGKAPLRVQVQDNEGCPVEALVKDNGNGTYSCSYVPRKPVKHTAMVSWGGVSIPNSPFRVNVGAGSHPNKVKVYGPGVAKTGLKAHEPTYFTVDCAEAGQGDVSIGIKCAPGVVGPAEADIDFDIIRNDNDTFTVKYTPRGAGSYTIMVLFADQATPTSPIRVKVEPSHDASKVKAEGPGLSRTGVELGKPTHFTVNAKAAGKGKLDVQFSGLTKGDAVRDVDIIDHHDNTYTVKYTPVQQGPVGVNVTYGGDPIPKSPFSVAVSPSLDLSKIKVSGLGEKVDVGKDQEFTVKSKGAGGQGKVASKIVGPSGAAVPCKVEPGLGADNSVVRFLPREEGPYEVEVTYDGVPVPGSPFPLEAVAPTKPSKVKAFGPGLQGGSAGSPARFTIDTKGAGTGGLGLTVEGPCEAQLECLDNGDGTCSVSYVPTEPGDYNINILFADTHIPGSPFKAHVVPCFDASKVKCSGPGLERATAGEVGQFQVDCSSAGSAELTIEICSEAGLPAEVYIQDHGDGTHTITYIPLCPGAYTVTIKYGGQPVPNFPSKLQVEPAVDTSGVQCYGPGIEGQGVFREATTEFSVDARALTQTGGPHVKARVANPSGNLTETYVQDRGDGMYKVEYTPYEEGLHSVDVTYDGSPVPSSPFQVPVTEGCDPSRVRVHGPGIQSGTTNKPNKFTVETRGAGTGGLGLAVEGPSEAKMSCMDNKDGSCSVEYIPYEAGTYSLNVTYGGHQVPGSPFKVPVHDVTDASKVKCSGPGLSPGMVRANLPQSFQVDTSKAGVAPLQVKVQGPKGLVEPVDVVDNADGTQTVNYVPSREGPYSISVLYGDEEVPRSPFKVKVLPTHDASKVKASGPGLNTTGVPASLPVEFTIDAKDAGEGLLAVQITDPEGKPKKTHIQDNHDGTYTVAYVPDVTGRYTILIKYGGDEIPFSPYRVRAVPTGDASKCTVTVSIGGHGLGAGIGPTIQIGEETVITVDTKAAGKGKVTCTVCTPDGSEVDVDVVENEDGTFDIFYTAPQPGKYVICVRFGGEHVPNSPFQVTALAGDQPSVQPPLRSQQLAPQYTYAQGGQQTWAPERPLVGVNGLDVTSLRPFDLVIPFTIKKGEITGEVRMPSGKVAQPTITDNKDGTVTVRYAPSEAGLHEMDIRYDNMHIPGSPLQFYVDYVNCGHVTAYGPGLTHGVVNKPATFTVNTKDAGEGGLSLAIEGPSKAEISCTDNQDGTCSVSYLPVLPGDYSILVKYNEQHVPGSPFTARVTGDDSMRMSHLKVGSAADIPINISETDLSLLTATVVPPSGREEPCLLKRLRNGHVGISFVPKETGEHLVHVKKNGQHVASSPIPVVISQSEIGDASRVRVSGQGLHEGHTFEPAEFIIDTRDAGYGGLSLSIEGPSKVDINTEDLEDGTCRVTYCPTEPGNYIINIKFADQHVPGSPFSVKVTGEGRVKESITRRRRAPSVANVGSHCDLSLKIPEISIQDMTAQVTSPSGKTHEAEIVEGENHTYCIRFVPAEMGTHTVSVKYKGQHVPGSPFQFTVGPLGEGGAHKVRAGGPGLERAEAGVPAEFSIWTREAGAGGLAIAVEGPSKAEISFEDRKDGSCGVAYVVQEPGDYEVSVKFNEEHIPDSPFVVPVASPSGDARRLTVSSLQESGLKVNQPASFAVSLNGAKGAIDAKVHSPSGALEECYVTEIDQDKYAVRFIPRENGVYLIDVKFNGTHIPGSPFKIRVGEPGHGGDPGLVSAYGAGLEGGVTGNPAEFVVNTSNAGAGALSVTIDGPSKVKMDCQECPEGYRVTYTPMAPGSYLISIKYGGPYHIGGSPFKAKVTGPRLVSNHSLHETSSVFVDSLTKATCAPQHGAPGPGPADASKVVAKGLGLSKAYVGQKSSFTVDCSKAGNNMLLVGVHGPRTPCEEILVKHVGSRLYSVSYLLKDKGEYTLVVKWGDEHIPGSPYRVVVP

binding: binds
Substance: Filamin A, full length, in A7 cells (from UniProt P21333 1-2647)
